Data published in article doi:10.1101/2025.03.26.644761 (bioRxiv, 2025).
Results are given in words; binding and its absence hold for the method and conditions named. Some entries that bind do so weakly or less than the wild type. Sequences can lack the tags named with a protein.

Biological target: His6-M45_(1–90)-mCherry, AAAA mutant A (murine cytomegalovirus (MCMV)) (UniProt Q06A28)
Assay: single molecule fluorescence

B1: His6-M45_(1–90)-mCherry, AAAA mutant A (domain or fragment, murine cytomegalovirus (MCMV), UniProt Q06A28 1-90, looked up)
chain: MDRQPKVYSDPDNGFFFLDVPMPDDGQGGQQTATTAAGGAFGVGGGHSVPYVAAAAGVSGIQIGNHNAMSIASCWSPSYTDRRRRSYPKT
binding: binds weakly
